Data as given in PubChem BioAssay AID504791 (Drosophila RNAi Screening Center, 2011).

- Screen: 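Genes of the fly required for silencing by miRNA, siRNA or endo-siRNA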 (primary screen)
- Cells: Drosophila S2-derived reporter cells
- Reagents: long dsRNA against Drosophila genes, about 150-250 ng dsRNA per well (siRNA assay); about 80-120 ng (miRNA assay)
- Timing: about 5 days (siRNA assay); about 4 days (miRNA assay)
- Challenge: copper sulfate induction of reporters: 25 µM (siRNA assay); 200 mM stated (miRNA assay), 1-2 days before reading
- Detection: 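Per-well ratio of Renilla over firefly light, expressed relative to that plate's average ratio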
- Reading the numbers: siRNA reporter hit score: higher = 3 marks a strong hit with raised ratio; -3 a strong hit with lowered ratio
- Hit rule: 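First-pass picks had plate-scaled ratios over 1.5 for the siRNA assay, over 1.6 for the miRNA assay, or under 0.6; two distinct dsRNAs had to score alike on retest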
In all, the deposit lists about 23,000 reagents; shown is an unselected part of those that have a named target and a result. Over the whole deposit, 199 (0.86%) got an active call. 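Plate-scaled ratios behind the calls are not deposited; printed light signals are raw; many rows marked increased or decreased are still called inactive.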 A plus sign joins genes that one reagent is predicted to hit. No sequences are given here.

gene knocked down | amplicon | siRNA reporter hit score | stable siRNA reporter change | stable assay Renilla, run 1 (luminescence) | stable assay firefly, run 1 (luminescence) | outcome
sm | DRSC05795 | – | – | 6036 | 4.89e5 | inactive
sm | DRSC07686 | – | – | 8752 | 2.97e5 | inactive
CG13982 | DRSC02314 | – | – | 7058 | 4.76e5 | inactive
Rab9Fb | DRSC19854 | – | – | 4819 | 4.03e5 | inactive
CG31693 | DRSC03674 | – | – | 5432 | 2.85e5 | inactive
TwdlH | DRSC14735 | – | reporter ratio lowered past the hit cutoff | 6726 | 7.63e5 | inactive
PNUTS | DRSC00638 | -3 | – | 37344 | 1.09e5 | inactive
PNUTS | DRSC22136 | – | – | 8787 | 5.66e5 | inactive
kcc | DRSC04316 | – | – | 5583 | 1.21e6 | inactive
kcc | DRSC04516 | – | – | 7363 | 3.40e5 | inactive
CG15096 | DRSC06525 | – | – | 10805 | 4.94e5 | inactive
sws | DRSC18843 | – | reporter ratio raised past the hit cutoff | 3611 | 3.52e5 | inactive
ACXB | DRSC00845 | – | – | 6958 | 3.08e5 | inactive
CG15529 | DRSC15066 | – | – | 7379 | 4.61e5 | inactive
FRG1 | DRSC10648 | – | – | 7338 | 4.31e5 | inactive
CG12990 | DRSC19510 | – | – | 6231 | 5.18e5 | inactive
pad | DRSC14227 | – | reporter ratio lowered past the hit cutoff | 7291 | 7.97e5 | inactive
Nubp1 | DRSC02639 | – | – | 1.52e5 | 1.92e6 | inactive
CG6415 | DRSC02954 | – | – | 6886 | 1.07e6 | inactive
Nplp1 | DRSC04370 | – | – | 17418 | 1.09e6 | inactive
CG15547 | DRSC15085 | – | – | 6564 | 3.54e5 | inactive
Ote | DRSC07498 | – | – | 8835 | 2.86e5 | inactive
CG32459 | DRSC11852 | – | – | 7071 | 4.80e5 | inactive
NaPi-T | DRSC07476 | – | – | 6796 | 3.47e5 | inactive
CG10286 | DRSC12520 | – | – | 10139 | 5.10e5 | inactive
CG42789 | DRSC13793 | – | – | 5303 | 6.22e5 | inactive
MtnB | DRSC22744 | – | reporter ratio lowered past the hit cutoff | 2051 | 3.44e5 | inactive
Grip75 | DRSC03337 | – | – | 6864 | 3.20e5 | inactive
MED4 | DRSC11014 | -3 | – | 5483 | 2.67e5 | inactive
CG12692 | DRSC17881 | – | – | 5823 | 3.04e5 | inactive
Set2 | DRSC19765 | – | – | 9467 | 5.59e5 | inactive
spo | DRSC11127 | – | – | 5652 | 3.47e5 | inactive
CG33722 + CG18749 | DRSC12674 | – | – | 5991 | 4.16e5 | inactive
CG33722 + CG18749 | DRSC15386 | – | – | 7303 | 5.01e5 | inactive
CG18537 | DRSC06764 | – | – | 7849 | 3.47e5 | inactive
CG18540 | DRSC06767 | – | – | 5247 | 3.16e5 | inactive
hpo | DRSC06065 | – | – | 10483 | 3.66e5 | inactive
Ddrgk1 | DRSC15897 | – | – | 9585 | 4.02e5 | inactive
teq | DRSC10298 | – | – | 6619 | 4.78e5 | inactive
teq | DRSC11301 | – | – | 6692 | 4.01e5 | inactive
teq | DRSC11302 | – | – | 7226 | 3.76e5 | inactive
Obp83a | DRSC12362 | – | – | 6963 | 5.44e5 | inactive

Continued (4 carried over from the part before).
gene knocked down | amplicon | siRNA reporter hit score | stable siRNA reporter change | stable assay Renilla, run 1 (luminescence) | stable assay firefly, run 1 (luminescence) | outcome
teq | DRSC10298 | – | – | 6619 | 4.78e5 | inactive
teq | DRSC11301 | – | – | 6692 | 4.01e5 | inactive
teq | DRSC11302 | – | – | 7226 | 3.76e5 | inactive
Obp83a | DRSC12362 | – | – | 6963 | 5.44e5 | inactive
tum | DRSC07575 | – | – | 5287 | 2.60e5 | inactive
CG32606 (retired record) | DRSC19001 | 3 | – | 3383 | 2.15e5 | inactive
CG32606 (retired record) | DRSC19371 | – | – | 5215 | 4.91e5 | inactive
CG32606 (retired record) | DRSC19372 | – | reporter ratio lowered past the hit cutoff | 2895 | 4.42e5 | inactive
CG32606 (retired record) | DRSC19373 | – | – | 3564 | 4.44e5 | inactive
CG32606 (retired record) | DRSC23035 | – | – | 4448 | 2.95e5 | inactive
Lime | DRSC06752 | – | – | 6540 | 4.87e5 | inactive
Enoph | DRSC12201 | – | – | 7078 | 5.57e5 | inactive
CG8141 | DRSC16387 | – | – | 6143 | 4.36e5 | inactive
CG30486 | DRSC06680 | – | – | 5279 | 3.06e5 | inactive
CG13217 | DRSC06339 | – | – | 6151 | 4.69e5 | inactive
CG15459 | DRSC20530 | – | – | 3123 | 2.87e5 | inactive
CG15459 | DRSC21383 | – | – | 9108 | 4.58e5 | inactive
Prp8 | DRSC07293 | – | – | 11184 | 3.85e5 | inactive
CG15020 | DRSC08474 | – | – | 5299 | 3.97e5 | inactive
ben | DRSC20310 | – | – | 8583 | 5.43e5 | inactive
ben | DRSC21261 | – | – | 5607 | 3.40e5 | inactive
simj | DRSC10942 | – | – | 6115 | 3.80e5 | inactive
CG34323 | DRSC18916 | – | – | 4799 | 4.05e5 | inactive
CG12920 | DRSC06234 | – | – | 6399 | 3.30e5 | inactive
SCCRO3 | DRSC06359 | – | – | 6747 | 4.52e5 | inactive
Cadps | DRSC21057 | – | – | 5451 | 3.99e5 | inactive
Cadps | DRSC22200 | – | – | 8930 | 5.55e5 | inactive
ome | DRSC09322 | – | – | 5159 | 3.78e5 | inactive
ome | DRSC10282 | – | – | 8508 | 4.45e5 | inactive
ome | DRSC11380 | – | – | 7711 | 3.25e5 | inactive
CG6765 | DRSC10706 | – | – | 6010 | 4.00e5 | inactive
l(1)sc | DRSC18789 | – | – | 6804 | 4.95e5 | inactive
Pgk | DRSC00769 | – | – | 7388 | 3.58e5 | inactive
Pgk | DRSC23340 | – | – | 4607 | 2.67e5 | inactive
Rpn5 | DRSC12367 | – | – | 5634 | 3.22e5 | inactive
CG11566 (retired record) + stg1 | DRSC20473 | – | – | 3823 | 2.07e5 | inactive
CG11566 (retired record) + stg1 | DRSC20481 | – | – | 4863 | 4.07e5 | inactive
CG11566 (retired record) + stg1 | DRSC20482 | – | – | 6207 | 3.88e5 | inactive
CG11566 (retired record) + stg1 | DRSC20483 | – | – | 4535 | 3.14e5 | inactive
heca | DRSC16964 | – | – | 5100 | 2.43e5 | inactive
heca | DRSC22990 | – | – | 4444 | 3.88e5 | inactive
Gr8a | DRSC18043 | – | – | 4767 | 3.93e5 | inactive
CG17684 | DRSC07724 | – | – | 6423 | 4.81e5 | inactive
CG17684 | DRSC21166 | – | – | 4907 | 2.91e5 | inactive
CG17078 | DRSC00484 | – | – | 7250 | 3.90e5 | inactive
